# PubChem BioAssay AID720504 (National Center for Advancing Translational Sciences (NCATS), 2013)
# Protein sequences, listed by entry. Tags and fused reporters are not part of them.
# UniProt P53350, whole entry, looked up: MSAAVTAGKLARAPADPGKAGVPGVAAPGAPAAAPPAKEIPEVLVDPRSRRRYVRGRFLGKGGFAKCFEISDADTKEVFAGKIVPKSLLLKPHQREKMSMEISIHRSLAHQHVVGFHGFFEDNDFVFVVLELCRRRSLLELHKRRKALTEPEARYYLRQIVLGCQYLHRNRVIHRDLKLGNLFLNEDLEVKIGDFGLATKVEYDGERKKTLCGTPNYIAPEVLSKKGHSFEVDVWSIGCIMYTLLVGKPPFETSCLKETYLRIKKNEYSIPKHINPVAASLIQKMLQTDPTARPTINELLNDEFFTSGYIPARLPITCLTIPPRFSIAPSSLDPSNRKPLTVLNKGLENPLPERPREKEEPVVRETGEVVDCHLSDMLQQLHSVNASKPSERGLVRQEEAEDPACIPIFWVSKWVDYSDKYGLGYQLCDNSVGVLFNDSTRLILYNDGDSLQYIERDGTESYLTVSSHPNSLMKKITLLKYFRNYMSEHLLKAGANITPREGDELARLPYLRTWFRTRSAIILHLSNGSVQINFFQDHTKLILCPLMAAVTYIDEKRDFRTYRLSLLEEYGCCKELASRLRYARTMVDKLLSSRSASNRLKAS
# Hit rate of the full screen: of about 360,000 compounds, about 10,000 (2.8%) were called active. Inconclusive means that the source gave no clear call. Such entries were picked first, then a sample of the others. Calls come from the whole dose curve; as a rule, active = well fitted inhibition curve with a large enough effect; inconclusive = small, poorly fitted or top-dose-only effect; inactive = flat fitted curve, though single readings scatter. A potency beside an inconclusive call is a rough fit, not a confirmed value.
# Target: Serine/threonine-protein kinase PLK1 (Homo sapiens) (UniProt P53350)
# Assay: qHTS for Inhibitors of PLK1-PDB (polo-like kinase 1 - polo-box domain): Primary Screen; note: nearly all actives have a fitted effect of over 65% in size; for max response, negative = inhibition: series mostly up to about 57 µM
# Conditions: Plk1 PBD binding of FITC phosphopeptide, fluorescence polarization
# % is set by controls: 0 for no effect and ±100 for the full control effect; potency is the fitted concentration of half-maximal effect.
SMILES,"max response, negative = inhibition",Potency
COc1ccc(OC)c(NC(=O)CCNS(=O)(=O)c2cccc3nonc23)c1,inactive: 2.47%,–
O=S(=O)(c1ccccc1)c1cccc(S(=O)(=O)N2CCCCC2)c1,inactive: -1.51%,–
CC(C)(C)OC(=O)N1C[C@H](O)C[C@H]1C(=O)OCC(=O)c1ccc([N+](=O)[O-])cc1,–,active: 21.2 µM
COc1cccc(/C=N/NC(=O)N/N=C/c2cccc(OC)c2O)c1O,inactive: -8.41%,–
c1ccc(OCCOCCN2CCc3ccccc3C2)cc1,inactive: 0.925%,–
COC(=O)CC1C(=O)NCCN1C(=S)Nc1ccccc1 (stereo unspecified),inactive: -6.02%,–
CCCCCC(=O)Nc1nc2ccccc2[nH]1,–,"inconclusive: 21.2 µM [inhibitor, partial curve]"
O=C(COC(=O)c1cc[n+]([O-])cc1)Nc1ccc([N+](=O)[O-])cc1,–,"inconclusive: 29.9 µM [inhibitor, partial curve]"
Cc1ccc(O)c(NC2=C(Cl)C(=O)N(Cc3ccccc3)C2=O)c1,–,active: 2.99 µM
O=C(Nc1n[nH]c(=S)s1)c1ccc2ccccc2c1,–,"inconclusive: 15 µM [inhibitor, partial curve]"
O=C(CSc1ccc2nnc(-c3ccc(F)cc3)n2n1)N1CCCc2ccccc21,inactive: -12.6%,–
CCC(=O)Nc1ccc(C2C(=O)c3ccccc3C2=O)cc1,–,active: 23.8 µM
C[N+]1(CC2COC3(CCCCC3)O2)CCCC1 (stereo unspecified),inactive: -12.9%,–
O=c1c2ccccc2nc(/C=C/c2ccc([N+](=O)[O-])o2)n1CCCO,–,"inconclusive: 29.9 µM [inhibitor, partial curve]"
CN=c1scc(-c2c[nH]c3ccccc23)n1C,–,"inconclusive: 26.7 µM [inhibitor, partial curve]"
O=C(O)c1ccc2c(=O)n3cc(C(=O)c4ccccc4O)cc(Cl)c3nc2c1,inconclusive: -30.2% [inhibitor],–
CC(C)CCN1C(=O)c2ccccc2C1c1nnnn1-c1ccc2c(c1)OCCO2 (stereo unspecified),inactive: -3.86%,–
O=C(Cc1ccc2c(c1)CCCC2)Nc1ccccc1Cl,–,active: 16.8 µM
COc1ccc(N(CC(=O)NCCOc2ccccc2)S(=O)(=O)c2ccc(C)cc2)cc1,–,"inconclusive: 21.2 µM [inhibitor, partial curve]"
O=C(NCCN1CCOCC1)c1ccc(Cl)cc1,inconclusive: -36.8% [inhibitor],–
Cc1ccccc1NC(=O)c1sc(NC(=O)COc2ccccc2)c(C#N)c1C,–,"inconclusive: 10.6 µM [inhibitor, partial curve, poor fit]"
Cc1[nH]c2ccccc2c1/C=N/n1cnnc1,–,"inconclusive: 26.7 µM [inhibitor, partial curve]"
CCOC(=O)C1=C(COC(=O)/C=C/c2ccco2)NC(=O)NC1C (stereo unspecified),–,"inconclusive: 21.2 µM [inhibitor, single point]"
CCOc1cc(/C=C2\SC(=O)N(CC(=O)Nc3ccccc3F)C2=O)cc([N+](=O)[O-])c1O,–,active: 23.8 µM
COC(=O)c1ccc(NCc2cc(O)ccc2O)cc1,–,"inconclusive: 37.7 µM [inhibitor, single point]"
Cc1nc2ccc(NC(=O)c3cc([N+](=O)[O-])cc([N+](=O)[O-])c3Cl)cc2s1,–,active: 2.67 µM

# Copied from the list.
# Potency with CCC(=O)Nc1ccc(C2C(=O)c3ccccc3C2=O)cc1 reads active: 23.8 µM
# max response, negative = inhibition with O=C(O)c1ccc2c(=O)n3cc(C(=O)c4ccccc4O)cc(Cl)c3nc2c1 reads inconclusive: -30.2% [inhibitor]

# The list continues.

SMILES,"max response, negative = inhibition",Potency
O=C(CC1CCCCC1)N=C1SC2CS(=O)(=O)CC2N1c1ccccc1 (stereo unspecified),–,active: 26.7 µM
O=S(=O)(c1cccc(S(=O)(=O)N2CCC(Cc3ccccc3)CC2)c1)N1CCOCC1,–,active: 26.7 µM
COc1ccc(N=Cc2nc(-c3ccccc3)oc2OC(C)=O)cc1,–,"inconclusive: 10.6 µM [inhibitor, partial curve]"
Cc1ccc(C(=O)Nc2ccc(N3CCOCC3)c3nonc23)cc1[N+](=O)[O-],–,"inconclusive: 75.2 µM [inhibitor, partial curve]"
O=C(CSc1ccc(-c2ccco2)nn1)c1ccc(F)cc1,–,"inconclusive: 21.2 µM [inhibitor, partial curve]"
O=C(CSc1ccccc1)Nc1ccc(S(=O)(=O)NCC2CCCO2)cc1 (stereo unspecified),–,active: 23.8 µM
CCOC(=O)C1CCN(C(=O)Cn2cc(C(=O)OC)c3ccccc32)CC1,–,"inconclusive: 23.8 µM [inhibitor, partial curve]"
COc1cc(C(C2C(=O)CC(C)(C)CC2=O)C2C(=O)CC(C)(C)CC2=O)ccc1OC(C)=O,–,"inconclusive: 21.2 µM [inhibitor, partial curve]"
O=[N+]([O-])c1cccnc1N1CCN(c2ccc(F)cc2)CC1,–,"inconclusive: 26.7 µM [inhibitor, single point]"
CCCC[C@@H]1CCCO[C@@](C(=O)NCc2ccccn2)(C(F)(F)F)C1,inconclusive: -32.3% [inhibitor],–
N#C/C(=N\Nc1ccccc1Cl)C(=O)c1ccccc1,–,"inconclusive: 23.8 µM [inhibitor, partial curve]"
CC1CC1C(=O)OCC(=O)Nc1cc(S(=O)(=O)N2CCCCC2)ccc1Cl (stereo unspecified),inactive: 5.92%,–
COC(=O)c1sc(N)c(C(=O)OC)c1Cn1ncc(Cl)c(Cl)c1=O,–,"inconclusive: 15 µM [inhibitor, partial curve]"
Cc1ccc(C)c(C(=O)COC(=O)c2ccccc2N2C(=O)C3C4CCC(C4)C3C2=O)c1 (stereo unspecified),–,"inconclusive: 29.9 µM [inhibitor, single point]"
COc1ccc(O)c(C(=O)c2cnn(C(=O)c3cccc(S(=O)(=O)N(C)C)c3)c2)c1,inactive: -6.55%,–
CCOC(=O)C1(CCc2ccccc2)CCN(Cc2c(O)cccc2OC)CC1,inactive: -11.5%,–
CNc1cncc(-c2ccc(C)cc2)n1,inactive: 1.12%,–
Cc1cccc(Nc2ncnc3c2cnn3C)c1,inactive: -3.26%,–
CC(C)=C1C(=O)NN(c2ccc(F)c(Cl)c2)C1=O,inactive: -13.6%,–
Cc1cc(O)cc(C)c1NS(=O)(=O)c1ccc2ccccc2c1,inactive: -12.6%,–
CN1CCN(S(=O)(=O)c2ccc(NC(=S)NC(=O)c3ccccc3)cc2)CC1,–,active: 26.7 µM
COc1ccccc1/C=C/c1nc(S(=O)(=O)c2ccccc2)c(N2CCC(C(N)=O)CC2)o1,inconclusive: -34.5% [inhibitor],–
CNC(=O)c1[nH]nc2c1CCc1cc(OC)ccc1-2,–,"inconclusive: 37.7 µM [inhibitor, partial curve]"
O=c1[nH]c(N2CCCCC2)nc2ncn(Cc3ccccc3)c12,–,active: 26.7 µM
COc1ccccc1NC(=O)c1nc(S(=O)(=O)Cc2ccccc2)ncc1Cl,–,"inconclusive: 3.36 µM [inhibitor, full curve]"
COc1cccc(CN2CCN(C(=O)c3ccco3)CC2)c1,inactive: -4.87%,–

SMILES,"max response, negative = inhibition",Potency
COc1nonc1NC(=O)CSc1nc2ccccc2[nH]1,–,active: 26.7 µM
COc1cc(NC(=S)N2CCC(C(N)=O)CC2)c(OC)cc1Cl,–,"inconclusive: 23.8 µM [inhibitor, partial curve]"
CN(C1=NS(=O)(=O)N=C(N(C)c2ccccc2)O1)c1ccccc1,inactive: -4.12%,–
CCOc1ccccc1/C=C/c1nc2ccccc2[nH]c1=O,–,active: 3.77 µM
CC(=O)N1CC[n+]2c(-c3ccc([N+](=O)[O-])cc3)csc21,–,active: 9.47 µM
CCS(=O)(=O)N1CCN(C2CCC(C)CC2)CC1 (stereo unspecified),inactive: -6.44%,–
COc1ccc(C[C@@H]2OC3(C=CC(=O)C=C3)O[C@H]2Cc2ccc(OC)cc2)cc1,–,"inconclusive: 2.38 µM [inhibitor, partial curve]"
O=C(Nc1nc2c(s1)CCc1ccccc1-2)c1ccco1,–,"inconclusive: 29.9 µM [inhibitor, single point]"
O=C(Nn1cnnc1)C(c1ccccc1)c1ccccc1,–,"inconclusive: 23.8 µM [inhibitor, single point]"
CCCN(CCC)CC(O)CN(c1cc([N+](=O)[O-])ccc1OC)S(=O)(=O)c1ccccc1 (stereo unspecified),inactive: -4.15%,–
CCOn1c(=O)c(-c2cc3ccccc3o2)[n+]([O-])c2ccccc21,–,active: 29.9 µM
N=c1n(CCN2CCCCC2)c2ccccc2n1CC(O)c1ccc(Cl)c(Cl)c1 (stereo unspecified),–,"inconclusive: 37.7 µM [inhibitor, single point]"
CN(CC(=O)Nc1ccc2c(c1)CCC2)CC(=O)Nc1ccccc1Br,–,active: 6.7 µM
Cn1c(COc2ccccc2)nnc1SCC(=O)Nc1ccc2c(c1)OCO2,inactive: -3.63%,–
CCCC(CC)Sc1nc2c([nH]1)c(=S)n(C)c(=O)n2C (stereo unspecified),inactive: -2.8%,–
COc1ccc(C2Nc3ccccc3NC3=C2C(=O)CC(C)(C)C3)cc1O (stereo unspecified),–,active: 3.77 µM
O=C(NNS(=O)(=O)c1cc(Cl)c(Cl)cc1Cl)c1cccnc1,–,"inconclusive: 26.7 µM [inhibitor, partial curve]"
C=CCNC(=S)/N=c1/ccccn1Cc1ccccc1,–,"inconclusive: 21.2 µM [inhibitor, partial curve]"
CN(C(=S)NCCN1CCOCC1)C(c1ccccc1)c1ccccc1,inconclusive: -30.2% [inhibitor],–
Cc1cccc(NC(=O)CNC(=O)Cn2ncc(Cl)c(Cl)c2=O)c1C,–,"inconclusive: 33.6 µM [inhibitor, single point]"
COc1ccc(CNCC(O)(c2ccccc2)c2ccc(F)cc2)cc1 (stereo unspecified),inactive: -3.44%,–
CCOC(=O)N1CCN(C(=O)COC(=O)CSc2ccc([N+](=O)[O-])cc2)CC1,–,"inconclusive: 21.2 µM [inhibitor, partial curve]"
O=C(COC(=O)Cn1nnc2ccccc21)Nc1ccccc1Br,–,active: 29.9 µM
COc1ccccc1NC1=C(NC(C)=O)C(=O)c2ccccc2C1=O,–,"inconclusive: 23.8 µM [inhibitor, single point]"

# Pulled by structure from the list above:
SMILES,"max response, negative = inhibition",Potency
COc1cc(NC(=S)N2CCC(C(N)=O)CC2)c(OC)cc1Cl,–,"inconclusive: 23.8 µM [inhibitor, partial curve]"
COc1ccc(C2Nc3ccccc3NC3=C2C(=O)CC(C)(C)C3)cc1O (stereo unspecified),–,active: 3.77 µM
N=c1n(CCN2CCCCC2)c2ccccc2n1CC(O)c1ccc(Cl)c(Cl)c1 (stereo unspecified),–,"inconclusive: 37.7 µM [inhibitor, single point]"
COc1ccccc1NC1=C(NC(C)=O)C(=O)c2ccccc2C1=O,–,"inconclusive: 23.8 µM [inhibitor, single point]"
